{"source": "PubChem BioAssay AID1224828, NIAID, 2016", "screen": "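Find genes required for NF-kappaB p65 moving into the nucleus after LPS in mouse macrophages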 (primary screen)", "system": "mouse RAW264.7 G9 macrophage reporter cells (GFP-p65, Tnf promoter-mCherry)", "knock-down reagent": "siRNA pool against mouse genes, 100 nM", "duration": "2 days siRNA transfection, then 40 min LPS before fixation", "challenge": "LPS (Salmonella minnesota R595) at 10 ng/ml", "detection": "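Imaged p65 nuclear translocation ratio, normalised to the plate median, converted to robust z-scores and averaged across two replicates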", "direction": "p65 translocation robust z-score: higher = more nuclear NF-kappaB p65 after LPS than the plate median; nuclear/cytoplasmic p65 ratio: higher = more nuclear NF-kappaB p65", "call rule": "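Active if robust z is above 3.3 (negative regulators) or below -1.56, the Tlr4 control median (positive regulators); activity score 50 or more; control wells not called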", "calls": "active = hit (p65 shift raised or lowered); inactive = no clear change", "note": "The whole screen tested about 17,000 reagents; below is a random part of them. Of all reagents, 762 (4.5%) are marked active. 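Active calls include both raised and lowered p65 entry, mostly lowered; wells with fewer than 50 cells lack a z-score.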 Raw values are not corrected between plates."}
{"gene symbol": "Mterf4 (mitochondrial transcription termination factor 4)", "nuclear/cytoplasmic p65 ratio, rep 1": 1.46, "nuclear/cytoplasmic p65 ratio, rep 2": 1.36, "low cell count flag": "fewer than 50 cells per well; well left out of scoring", "Outcome": "inactive"}
{"gene symbol": "Vmn1r22 (vomeronasal 1 receptor 22)", "p65 translocation robust z-score": -0.55, "nuclear/cytoplasmic p65 ratio, rep 1": 1.32, "nuclear/cytoplasmic p65 ratio, rep 2": 1.19, "low cell count flag": "enough cells to score", "Outcome": "inactive"}
{"gene symbol": "Tdpoz4 (TD and POZ domain containing 4)", "nuclear/cytoplasmic p65 ratio, rep 1": 1.33, "nuclear/cytoplasmic p65 ratio, rep 2": 1.15, "low cell count flag": "fewer than 50 cells per well; well left out of scoring", "Outcome": "inactive"}
{"gene symbol": "Emid1 (EMI domain containing 1)", "p65 translocation robust z-score": 0.34, "nuclear/cytoplasmic p65 ratio, rep 1": 1.52, "nuclear/cytoplasmic p65 ratio, rep 2": 1.4, "low cell count flag": "enough cells to score", "Outcome": "inactive"}
{"gene symbol": "Slc25a46", "p65 translocation robust z-score": 0.11, "nuclear/cytoplasmic p65 ratio, rep 1": 1.4, "nuclear/cytoplasmic p65 ratio, rep 2": 1.43, "low cell count flag": "enough cells to score", "Outcome": "inactive"}
{"gene symbol": "4932415M13Rik (RIKEN cDNA 4932415M13 gene)", "nuclear/cytoplasmic p65 ratio, rep 1": 1.25, "nuclear/cytoplasmic p65 ratio, rep 2": 1.66, "low cell count flag": "fewer than 50 cells per well; well left out of scoring", "Outcome": "inactive"}
{"gene symbol": "Fbxl6 (F-box and leucine-rich repeat protein 6)", "p65 translocation robust z-score": -1.46, "nuclear/cytoplasmic p65 ratio, rep 1": 1.25, "nuclear/cytoplasmic p65 ratio, rep 2": 1.19, "low cell count flag": "enough cells to score", "Outcome": "inactive"}
{"gene symbol": "Eif2b2 (eukaryotic translation initiation factor 2B, subunit 2 beta)", "p65 translocation robust z-score": 0.35, "nuclear/cytoplasmic p65 ratio, rep 1": 1.55, "nuclear/cytoplasmic p65 ratio, rep 2": 1.38, "low cell count flag": "enough cells to score", "Outcome": "inactive"}
{"gene symbol": "Slfnl1 (schlafen like 1)", "p65 translocation robust z-score": 1.18, "nuclear/cytoplasmic p65 ratio, rep 1": 1.4, "nuclear/cytoplasmic p65 ratio, rep 2": 1.47, "low cell count flag": "enough cells to score", "Outcome": "inactive"}
{"gene symbol": "Skap2 (src family associated phosphoprotein 2)", "p65 translocation robust z-score": -0.42, "nuclear/cytoplasmic p65 ratio, rep 1": 1.42, "nuclear/cytoplasmic p65 ratio, rep 2": 1.49, "low cell count flag": "enough cells to score", "Outcome": "inactive"}
{"gene symbol": "Basp1 (brain abundant, membrane attached signal protein 1)", "p65 translocation robust z-score": -0.98, "nuclear/cytoplasmic p65 ratio, rep 1": 1.45, "nuclear/cytoplasmic p65 ratio, rep 2": 1.48, "low cell count flag": "enough cells to score", "Outcome": "inactive"}
{"gene symbol": "Or14a259 (olfactory receptor family 14 subfamily A member 259)", "p65 translocation robust z-score": 0.64, "nuclear/cytoplasmic p65 ratio, rep 1": 1.71, "nuclear/cytoplasmic p65 ratio, rep 2": 1.5, "low cell count flag": "enough cells to score", "Outcome": "inactive"}
{"gene symbol": "Psmc1 (protease (prosome, macropain) 26S subunit, ATPase 1)", "nuclear/cytoplasmic p65 ratio, rep 1": 1.29, "nuclear/cytoplasmic p65 ratio, rep 2": 1.06, "low cell count flag": "fewer than 50 cells per well; well left out of scoring", "Outcome": "inactive"}
{"gene symbol": "Txlna (taxilin alpha)", "p65 translocation robust z-score": -0.21, "nuclear/cytoplasmic p65 ratio, rep 1": 1.58, "nuclear/cytoplasmic p65 ratio, rep 2": 1.39, "low cell count flag": "enough cells to score", "Outcome": "inactive"}
{"gene symbol": "Dcaf7 (DDB1 and CUL4 associated factor 7)", "p65 translocation robust z-score": 0.08, "nuclear/cytoplasmic p65 ratio, rep 1": 1.58, "nuclear/cytoplasmic p65 ratio, rep 2": 1.67, "low cell count flag": "enough cells to score", "Outcome": "inactive"}
{"gene symbol": "Urm1 (ubiquitin related modifier 1)", "nuclear/cytoplasmic p65 ratio, rep 1": 0.921, "nuclear/cytoplasmic p65 ratio, rep 2": 1.16, "low cell count flag": "fewer than 50 cells per well; well left out of scoring", "Outcome": "inactive"}
{"gene symbol": "Ehhadh", "p65 translocation robust z-score": -0.26, "nuclear/cytoplasmic p65 ratio, rep 1": 1.48, "nuclear/cytoplasmic p65 ratio, rep 2": 1.29, "low cell count flag": "enough cells to score", "Outcome": "inactive"}
{"gene symbol": "Slc25a36", "p65 translocation robust z-score": 0.29, "nuclear/cytoplasmic p65 ratio, rep 1": 1.46, "nuclear/cytoplasmic p65 ratio, rep 2": 1.57, "low cell count flag": "enough cells to score", "Outcome": "inactive"}
{"gene symbol": "Nthl1 (nth (endonuclease III)-like 1 (E.coli))", "p65 translocation robust z-score": -0.59, "nuclear/cytoplasmic p65 ratio, rep 1": 1.39, "nuclear/cytoplasmic p65 ratio, rep 2": 1.31, "low cell count flag": "enough cells to score", "Outcome": "inactive"}
{"gene symbol": "Ncapd2 (non-SMC condensin I complex, subunit D2)", "nuclear/cytoplasmic p65 ratio, rep 1": 2, "nuclear/cytoplasmic p65 ratio, rep 2": 1.74, "low cell count flag": "fewer than 50 cells per well; well left out of scoring", "Outcome": "inactive"}
{"gene symbol": "Ms4a1 (membrane-spanning 4-domains, subfamily A, member 1)", "p65 translocation robust z-score": -0.19, "nuclear/cytoplasmic p65 ratio, rep 1": 1.39, "nuclear/cytoplasmic p65 ratio, rep 2": 1.35, "low cell count flag": "enough cells to score", "Outcome": "inactive"}
{"gene symbol": "Kpna3 (karyopherin subunit alpha 3)", "p65 translocation robust z-score": -0.37, "nuclear/cytoplasmic p65 ratio, rep 1": 1.47, "nuclear/cytoplasmic p65 ratio, rep 2": 1.29, "low cell count flag": "enough cells to score", "Outcome": "inactive"}
{"gene symbol": "Stambp (STAM binding protein)", "p65 translocation robust z-score": 0.61, "nuclear/cytoplasmic p65 ratio, rep 1": 1.5, "nuclear/cytoplasmic p65 ratio, rep 2": 1.27, "low cell count flag": "enough cells to score", "Outcome": "inactive"}
{"gene symbol": "Rims3 (regulating synaptic membrane exocytosis 3)", "p65 translocation robust z-score": -0.93, "nuclear/cytoplasmic p65 ratio, rep 1": 1.41, "nuclear/cytoplasmic p65 ratio, rep 2": 1.11, "low cell count flag": "enough cells to score", "Outcome": "inactive"}
{"gene symbol": "Dctn2 (dynactin 2)", "p65 translocation robust z-score": 0.56, "nuclear/cytoplasmic p65 ratio, rep 1": 1.53, "nuclear/cytoplasmic p65 ratio, rep 2": 1.45, "low cell count flag": "enough cells to score", "Outcome": "inactive"}
{"gene symbol": "Dcc (DCC netrin 1 receptor)", "p65 translocation robust z-score": 0.64, "nuclear/cytoplasmic p65 ratio, rep 1": 1.48, "nuclear/cytoplasmic p65 ratio, rep 2": 1.52, "low cell count flag": "enough cells to score", "Outcome": "inactive"}
{"gene symbol": "Nfatc3", "p65 translocation robust z-score": -0.54, "nuclear/cytoplasmic p65 ratio, rep 1": 1.31, "nuclear/cytoplasmic p65 ratio, rep 2": 1.33, "low cell count flag": "enough cells to score", "Outcome": "inactive"}

Copied from above (2 entries):
{"gene symbol": "Ncapd2 (non-SMC condensin I complex, subunit D2)", "nuclear/cytoplasmic p65 ratio, rep 1": 2, "nuclear/cytoplasmic p65 ratio, rep 2": 1.74, "low cell count flag": "fewer than 50 cells per well; well left out of scoring", "Outcome": "inactive"}
{"gene symbol": "Ms4a1 (membrane-spanning 4-domains, subfamily A, member 1)", "p65 translocation robust z-score": -0.19, "nuclear/cytoplasmic p65 ratio, rep 1": 1.39, "nuclear/cytoplasmic p65 ratio, rep 2": 1.35, "low cell count flag": "enough cells to score", "Outcome": "inactive"}
